Measured values reported in publication PMC12242765.

Protein sequences, listed by entry. Tags and fused reporters are not part of them.
UniProt P49739: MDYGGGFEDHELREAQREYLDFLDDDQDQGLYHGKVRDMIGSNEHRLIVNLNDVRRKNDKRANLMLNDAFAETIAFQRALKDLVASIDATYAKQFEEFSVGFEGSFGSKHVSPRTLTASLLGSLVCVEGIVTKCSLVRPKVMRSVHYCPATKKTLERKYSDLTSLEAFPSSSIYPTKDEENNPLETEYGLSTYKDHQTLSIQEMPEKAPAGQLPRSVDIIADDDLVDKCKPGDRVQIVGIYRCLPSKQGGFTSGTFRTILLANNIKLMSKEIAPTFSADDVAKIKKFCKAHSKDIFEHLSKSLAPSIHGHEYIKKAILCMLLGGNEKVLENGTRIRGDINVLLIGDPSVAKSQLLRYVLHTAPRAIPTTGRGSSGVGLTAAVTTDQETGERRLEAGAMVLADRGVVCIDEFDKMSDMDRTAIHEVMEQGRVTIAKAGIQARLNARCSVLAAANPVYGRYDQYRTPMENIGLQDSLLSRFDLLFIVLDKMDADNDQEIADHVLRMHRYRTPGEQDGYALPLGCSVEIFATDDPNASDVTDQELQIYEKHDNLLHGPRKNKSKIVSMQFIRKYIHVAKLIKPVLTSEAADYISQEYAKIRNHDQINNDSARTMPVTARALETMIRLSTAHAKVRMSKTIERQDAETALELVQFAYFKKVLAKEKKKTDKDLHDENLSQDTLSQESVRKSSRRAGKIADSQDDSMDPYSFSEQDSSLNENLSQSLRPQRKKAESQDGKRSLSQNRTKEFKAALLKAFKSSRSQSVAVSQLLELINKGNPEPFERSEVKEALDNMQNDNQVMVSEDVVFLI
UniProt Q9DE14: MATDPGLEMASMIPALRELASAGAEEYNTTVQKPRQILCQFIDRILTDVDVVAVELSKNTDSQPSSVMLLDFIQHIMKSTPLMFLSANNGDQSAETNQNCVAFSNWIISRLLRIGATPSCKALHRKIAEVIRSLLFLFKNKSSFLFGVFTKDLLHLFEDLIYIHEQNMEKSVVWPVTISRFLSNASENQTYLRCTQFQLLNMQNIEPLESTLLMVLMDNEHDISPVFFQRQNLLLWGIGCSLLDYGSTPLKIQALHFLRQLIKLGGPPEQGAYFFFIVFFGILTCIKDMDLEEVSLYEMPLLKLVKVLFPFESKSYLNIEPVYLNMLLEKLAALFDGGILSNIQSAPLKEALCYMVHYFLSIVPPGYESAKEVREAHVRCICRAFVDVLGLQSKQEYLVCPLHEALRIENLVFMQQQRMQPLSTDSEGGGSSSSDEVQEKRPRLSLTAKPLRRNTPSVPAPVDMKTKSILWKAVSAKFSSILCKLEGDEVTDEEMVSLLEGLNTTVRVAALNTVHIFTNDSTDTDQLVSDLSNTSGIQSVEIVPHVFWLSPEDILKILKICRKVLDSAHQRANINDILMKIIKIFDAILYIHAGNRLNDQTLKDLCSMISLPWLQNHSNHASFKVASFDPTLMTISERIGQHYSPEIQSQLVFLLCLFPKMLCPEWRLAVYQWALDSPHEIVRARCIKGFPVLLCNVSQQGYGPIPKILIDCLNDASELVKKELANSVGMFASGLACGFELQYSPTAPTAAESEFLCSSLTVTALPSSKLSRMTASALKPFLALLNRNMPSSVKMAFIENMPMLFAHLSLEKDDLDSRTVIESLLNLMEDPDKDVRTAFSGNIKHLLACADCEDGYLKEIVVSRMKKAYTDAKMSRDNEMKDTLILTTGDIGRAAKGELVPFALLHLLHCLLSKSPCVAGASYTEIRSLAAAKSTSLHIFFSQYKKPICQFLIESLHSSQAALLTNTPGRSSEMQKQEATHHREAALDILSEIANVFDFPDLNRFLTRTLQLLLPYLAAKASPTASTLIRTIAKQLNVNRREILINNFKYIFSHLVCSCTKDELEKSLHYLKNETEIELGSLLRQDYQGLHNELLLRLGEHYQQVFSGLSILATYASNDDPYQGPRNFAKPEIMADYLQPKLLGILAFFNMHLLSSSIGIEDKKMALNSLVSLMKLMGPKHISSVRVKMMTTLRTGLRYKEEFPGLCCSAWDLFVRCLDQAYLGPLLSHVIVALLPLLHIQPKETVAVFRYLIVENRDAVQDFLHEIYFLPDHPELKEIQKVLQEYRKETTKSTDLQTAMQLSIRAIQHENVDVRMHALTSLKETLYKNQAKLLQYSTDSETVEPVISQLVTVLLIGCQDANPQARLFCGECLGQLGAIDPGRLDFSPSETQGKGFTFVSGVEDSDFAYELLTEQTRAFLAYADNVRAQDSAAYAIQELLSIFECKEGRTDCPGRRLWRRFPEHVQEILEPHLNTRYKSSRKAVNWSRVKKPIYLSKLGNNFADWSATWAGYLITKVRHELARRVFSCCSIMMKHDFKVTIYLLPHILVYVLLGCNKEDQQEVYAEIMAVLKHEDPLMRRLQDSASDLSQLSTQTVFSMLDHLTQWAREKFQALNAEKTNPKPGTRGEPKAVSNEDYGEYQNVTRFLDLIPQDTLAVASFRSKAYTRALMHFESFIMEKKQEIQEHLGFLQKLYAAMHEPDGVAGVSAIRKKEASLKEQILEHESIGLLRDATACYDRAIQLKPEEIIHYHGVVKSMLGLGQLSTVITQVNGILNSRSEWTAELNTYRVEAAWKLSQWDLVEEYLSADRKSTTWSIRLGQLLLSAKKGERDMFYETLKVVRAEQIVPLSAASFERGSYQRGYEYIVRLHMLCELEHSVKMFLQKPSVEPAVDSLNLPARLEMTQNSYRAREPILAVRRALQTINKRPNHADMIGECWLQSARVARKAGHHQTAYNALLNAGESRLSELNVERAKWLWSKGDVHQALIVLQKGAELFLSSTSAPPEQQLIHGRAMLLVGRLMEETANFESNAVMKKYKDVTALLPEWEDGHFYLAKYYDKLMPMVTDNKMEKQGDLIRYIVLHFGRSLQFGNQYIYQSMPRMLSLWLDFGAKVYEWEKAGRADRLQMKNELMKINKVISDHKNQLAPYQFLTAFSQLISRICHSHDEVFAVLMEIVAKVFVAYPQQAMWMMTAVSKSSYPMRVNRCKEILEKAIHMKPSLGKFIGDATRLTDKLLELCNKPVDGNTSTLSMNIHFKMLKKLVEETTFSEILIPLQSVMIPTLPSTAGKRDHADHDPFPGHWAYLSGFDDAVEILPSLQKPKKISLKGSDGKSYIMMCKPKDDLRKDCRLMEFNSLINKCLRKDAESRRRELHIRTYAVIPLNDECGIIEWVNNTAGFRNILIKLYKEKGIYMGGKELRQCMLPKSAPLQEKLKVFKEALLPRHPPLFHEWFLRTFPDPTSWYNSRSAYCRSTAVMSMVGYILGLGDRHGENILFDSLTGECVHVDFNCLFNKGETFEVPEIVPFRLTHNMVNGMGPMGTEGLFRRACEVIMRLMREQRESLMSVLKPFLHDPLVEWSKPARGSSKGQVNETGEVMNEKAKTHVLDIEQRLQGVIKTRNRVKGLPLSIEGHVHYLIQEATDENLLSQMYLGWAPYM
UniProt P31669: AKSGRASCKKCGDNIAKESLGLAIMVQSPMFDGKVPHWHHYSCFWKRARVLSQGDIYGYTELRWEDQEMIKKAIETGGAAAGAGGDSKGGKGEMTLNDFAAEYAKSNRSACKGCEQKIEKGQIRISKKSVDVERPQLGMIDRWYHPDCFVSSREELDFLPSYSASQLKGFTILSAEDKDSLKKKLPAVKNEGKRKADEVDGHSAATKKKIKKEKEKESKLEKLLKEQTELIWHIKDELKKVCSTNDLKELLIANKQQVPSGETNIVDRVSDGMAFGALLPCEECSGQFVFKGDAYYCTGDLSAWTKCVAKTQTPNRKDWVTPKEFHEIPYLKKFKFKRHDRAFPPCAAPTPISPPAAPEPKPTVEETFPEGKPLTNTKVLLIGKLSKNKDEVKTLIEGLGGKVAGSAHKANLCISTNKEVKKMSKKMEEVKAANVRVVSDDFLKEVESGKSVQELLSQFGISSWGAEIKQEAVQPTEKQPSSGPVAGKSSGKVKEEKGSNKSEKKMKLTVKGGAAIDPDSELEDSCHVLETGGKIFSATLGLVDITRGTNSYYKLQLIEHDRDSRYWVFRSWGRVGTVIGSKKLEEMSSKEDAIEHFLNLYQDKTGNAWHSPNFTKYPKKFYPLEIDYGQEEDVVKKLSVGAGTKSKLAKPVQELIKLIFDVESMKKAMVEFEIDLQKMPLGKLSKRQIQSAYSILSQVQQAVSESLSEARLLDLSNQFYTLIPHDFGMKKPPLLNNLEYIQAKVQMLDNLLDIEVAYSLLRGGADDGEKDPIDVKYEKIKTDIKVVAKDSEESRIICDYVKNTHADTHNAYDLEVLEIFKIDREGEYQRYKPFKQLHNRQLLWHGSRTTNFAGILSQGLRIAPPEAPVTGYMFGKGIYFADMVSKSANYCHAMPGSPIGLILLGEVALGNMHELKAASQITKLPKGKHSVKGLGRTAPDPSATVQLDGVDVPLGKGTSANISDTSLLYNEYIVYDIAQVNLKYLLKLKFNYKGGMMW

Target: Mcm3 (X. laevis (endogenous in egg extract)) (UniProt P49739)
Assay: affinity purification with mass spectrometry; Mcm3 IP from chromatin in S-phase (replisomes retained by CULi and p97i) and in mitosis (CyclinA1ΔN added); re-analysis of the authors' previously published mass spectrometry data (refs 4 and 10), peptides normalised to total Mcm2-7

binding | Substance
binds | ATR (from UniProt Q9DE14 1-2654) (enzyme)
binds | Parp1 (from UniProt P31669 1-998) (enzyme)

These are yes or no findings as the source states them, for the method shown. Binding seen in cells or lysates may run through a third protein. Here binding means that the protein was enriched with, or labelled near, the bait; the list need not be complete.
